{
  "source": "patent US20110054247A1",
  "about": "“METHODS FOR CLONING FERRETS AND TRANSGENIC FERRET MODELS FOR DISEASES” (UNIVERSITY OF IOWA RESEARCH FOUNDATION, priority 2009, published 2011)",
  "key": {"CFTR-/- kits": {"tested_on": "CFTR-/- kits", "test": "Oral UDCA therapy of CFTR-/- kits (neonatal clinical care, blood chemistries)", "type": "in vivo, ferret", "experimental": "Neonatal clinical care of CFTR^−/− kits. Two treatment protocols were developed to enhance post-natal survival and reduce the risk of intestinal obstruction caused by MI. Both protocols included administering metronidazole (5 mg/kg in 100 uL of dextrose saline, s.c.) 4× daily beginning at the time of birth, and starving the animals for the first 3 hours after birth and then administering a 150-200 μL Golytely® gavage (Braintree Laboratories Inc.) using a fire polished microloader pipette tip (Eppendorf Inc.) (FIG. 27 for example of gavage tube components). The gavage was repeated every 6 hours up to three times, until meconium was passed. After the CF kits passed meconium they were fed, by gavage, 150-200 μL Elecare (Abbott Laboratories) supplemented with UDCA (5 mg/kg) and/or omeprazole (5 mg/kg) 4× daily. When the diet was supplemented with pancreatic enzymes, Viokase-V was used and dosed according to lipase units as specified. Once genotypes were known, typically at 12-18 hours after birth, the litter size was reduced such that only the CFTR^−/− kits and an equal number of controls (CFTR^+/+ and/or CFTR^+/−) were kept. When CFTR^−/− kits were weaned at 5 weeks of age, they were fed a slurry of Elecare hydrated solid chow (Marshall Farms) 2× daily, mixed with 1 lipase Unit per 10 gram body weight of Viokase-V (the amount of food eaten with each feeding was recorded for these calculations).\nBlood chemistries. Blood chemistries were performed using a VetScan VS2 (Abaxis) using blood drawn at the time of clinical death and necropsy. Mammalian Liver Profile rotors from Abaxis were used, and assessed plasma levels of: alkaline phosphatase (AP), alanine aminotransferase (ALT), bile acids (BA), total bilirubin (TBiI), total cholesterol (CHOL), gamma glutamyl transferase (GGT), and blood urea nitrogen (BUN). Indirect and direct bilirubin levels in the plasma were measured using two kits from Diazyme Inc for total bilirubin (DZ150A-K) and direct bilirubin (DZ151A-K), where the indirect bilirubin=total bilirubin−direct bilirubin.\nFor these reasons, it was determined whether oral UDCA therapy of CFTR^−/− kits might normalize liver function and improve nutrition. Additionally, CFTR^−/− kits were gavaged with Golytely® within the first 12 hours to enhance rapid meconium clearance, and treated with antibiotics to prevent secondary lung infection during the early neonatal period. […] Although control lungs were free of pathology, it is currently unclear if lung lesions in the CFTR^−/− kit were due to the inability of the weakened animals (i.e., nutritionally compromised) to eradicate the bacteria associated with aspirated material."}, "CF patients": {"tested_on": "CF patients", "settings": "oral administration, CF patients (Cotting et al., 1990; Scher et al.); cited from earlier work"}},
  "note": "Entries after “also recorded” stand apart in the source; their conditions may differ. For at least one compound, name, drawing or mass did not settle the structure.",
  "data": [
    {"molecule": "C[C@H](CCC(=O)O)[C@H]1CC[C@H]2[C@@H]3[C@@H](O)C[C@@H]4C[C@H](O)CC[C@]4(C)[C@H]3CC[C@]12C", "note": "[UDCA, ursodeoxycholic acid]", "values": [
      {"measurement": "weight gain", "setting": "CFTR-/- kits; CFTR-/- kits that passed stool (N=4), oral UDCA, versus CFTR+/+;+/- littermates", "value": "failed to gain weight; also recorded: does not enhance weight gain"},
      {"measurement": "serum (plasma) ALT levels", "setting": "CFTR-/- kits; CFTR-/- kits without MI, oral UDCA 5 mg/kg 4x daily in Elecare, plus Golytely gavage and metronidazole, blood drawn at euthanasia", "value": "normalized; also recorded: lowers"},
      {"measurement": "serum (plasma) total bilirubin levels", "setting": "CFTR-/- kits; CFTR-/- kits without MI, oral UDCA 5 mg/kg 4x daily, blood drawn at euthanasia", "value": "normalized; also recorded: lowers"},
      {"measurement": "serum cholesterol levels", "setting": "CFTR-/- kits; CFTR-/- kits without MI, oral UDCA 5 mg/kg 4x daily, remained low in comparison to treated controls", "value": "failed to normalize"},
      {"measurement": "LFTs (including serum ALT and bilirubin)", "setting": "CF patients", "value": "normalize"},
      {"measurement": "nutritional status", "setting": "CF patients", "value": "improve"}
    ]}
  ]
}
